{"source": "patent US9901609B2", "about": "“Medicinal plant extract” (UNIVERSITY OF ANTWERP, priority 2013, dated 2018)", "key": {"[1]": {"assay": "In vivo evaluation: level of cholesterol in the bile of dogs on a cholesterol-rich diet"}, "[2]": {"assay": "In vivo evaluation: level of cholesterol in the blood of dogs on a cholesterol-rich diet"}, "[3]": {"settings": "normal diet conditions, Settaf et al., 2000; cited from earlier work"}}, "note": "For at least one compound, name, drawing or mass did not settle the structure. Some entries share one result that the patent states for a list of compounds."}
{"smiles": "C[C@H](CCC(=O)O)[C@H]1CC[C@H]2[C@@H]3[C@@H](O)C[C@@H]4C[C@H](O)CC[C@]4(C)[C@H]3CC[C@]12C", "note": "[UDCA, ursodeoxycholic acid]", "values": [{"measurement": "difference in bile cholesterol between groups", "setting": "[1]; at 150 days of treatment", "result": "all three groups remained statistically equal"}, {"measurement": "difference in bile cholesterol versus control group", "setting": "[1]; at any time-point", "result": "no statistical difference could be observed"}, {"measurement": "level of cholesterol in the bile over time", "setting": "[1]; dogs, cholesterol-rich diet until day 120, treatment twice daily from day 30 to day 180, bile sampled every 30 days", "result": "showed an increase in bile cholesterol over time"}, {"measurement": "cholesterol in blood: difference between groups at the different time-points", "setting": "[2]; CG, UG and HG compared", "result": "remained statistically equal"}, {"measurement": "cholesterol in blood: difference between the different time-points within the group", "setting": "[2]; treatment twice daily from day 30 to day 180", "result": "No statistically significant difference"}, {"measurement": "decrease of bile cholesterol", "setting": "[3]", "result": "28-30%"}]}
